Values of other authors in PMC2597681 (Biochemistry, 2008).

Protein sequences, listed by entry. Tags and fused reporters are not part of them. Residues count along the entry.
UniProt P03887, whole entry: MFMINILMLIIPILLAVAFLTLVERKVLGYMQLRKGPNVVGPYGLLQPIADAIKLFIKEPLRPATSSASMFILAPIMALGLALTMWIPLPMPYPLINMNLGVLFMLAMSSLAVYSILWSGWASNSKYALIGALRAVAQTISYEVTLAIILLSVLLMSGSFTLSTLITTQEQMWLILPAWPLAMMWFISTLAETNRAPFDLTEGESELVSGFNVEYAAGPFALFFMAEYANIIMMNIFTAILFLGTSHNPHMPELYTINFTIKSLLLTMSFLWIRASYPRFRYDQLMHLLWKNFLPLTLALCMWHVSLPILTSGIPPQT
UniProt P17694, 34-463: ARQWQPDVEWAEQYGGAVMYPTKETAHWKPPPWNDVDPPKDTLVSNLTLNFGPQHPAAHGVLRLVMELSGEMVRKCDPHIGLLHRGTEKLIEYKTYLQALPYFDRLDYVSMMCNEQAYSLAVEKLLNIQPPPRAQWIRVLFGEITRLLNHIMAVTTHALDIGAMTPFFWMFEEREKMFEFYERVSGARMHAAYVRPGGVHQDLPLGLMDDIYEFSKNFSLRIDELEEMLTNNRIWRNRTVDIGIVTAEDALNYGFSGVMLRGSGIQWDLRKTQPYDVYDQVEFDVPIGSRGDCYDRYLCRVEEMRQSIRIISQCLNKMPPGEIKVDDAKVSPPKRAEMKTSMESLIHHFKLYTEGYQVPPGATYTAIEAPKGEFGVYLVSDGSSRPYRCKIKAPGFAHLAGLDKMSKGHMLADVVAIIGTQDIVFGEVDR

Biological target: ND1 subunit (Bos taurus, UniProt P03887+P17694)
Details: ref [19]; cited from earlier work

**Q.** With `C=C(C)[C@H]1Cc2c(ccc3c2O[C@@H]2COc4cc(OC)c(OC)cc4[C@@H]2C3=O)O1` [rotenone] as the molecule, how does the “Suppression of specific binding of [125I]TDA to ND1 (in words)” value read?
**A.** completely suppress
